Results on 10 molecules are retold here after the supplement of paper PMC10689618.

This is one part of the list. Repeats are few or missing, and single values can be far off.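 Primary human fetal astrocytes engulfed labelled rat cortical synaptosomes, measured as a red/green ratio corrected for calcein live-cell signal and scaled to the plate median. Toxicity meant calcein falling over 30%; decreased phagocytosis meant below 70% of median above 5 µM.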

For assay [1], the system named is Human fetal astrocytes. The assay is described as follows: loss of total cells relative to no-compound high-control median (toxicity); higher = more toxic (fewer cells). The note with it: 24 h.
For assay [2], the system named is Human fetal astrocytes. Description: synaptosome phagocytosis (pHrodo/calcein intensity ratio) relative to plate median of data wells; higher = more phagocytosis. The note with it: 24 h.

Turning to `CC(C)(C)NC(=O)[C@H]1CC[C@H]2[C@@H]3CC[C@H]4NC(=O)C=C[C@]4(C)[C@H]3CC[C@]12C`, the “loss of total cells” value in the assay with Human fetal astrocytes [1] (1.39 µM) is -25.7%; in the assay on Human fetal astrocytes [1] (2.78 µM), 2.7%; with Human fetal astrocytes [1] (5.56 µM), 0.3%; with Human fetal astrocytes [1] (11.11 µM), -0.8%; in the assay on Human fetal astrocytes [1] (22.22 µM) it was 21%. Also, the synaptosome phagocytosis was 105% in the assay with Human fetal astrocytes [2] (1.39 µM); 106% in the assay with Human fetal astrocytes [2] (2.78 µM); 103% in the assay on Human fetal astrocytes [2] (5.56 µM); 95.7% with Human fetal astrocytes [2] (11.11 µM); 82.2% in the assay with Human fetal astrocytes [2] (22.22 µM).
As to `COc1cc(C2Oc3cc([C@H]4Oc5cc(O)cc(O)c5C(=O)[C@@H]4O)ccc3OC2CO)ccc1O` (stereo not given in full), the “loss of total cells” value with Human fetal astrocytes [1] (1.39 µM) stood at 17.7%; with Human fetal astrocytes [1] (2.78 µM), 0.4%; with Human fetal astrocytes [1] (5.56 µM), 20.3%; in the assay on Human fetal astrocytes [1] (11.11 µM), 6.3%; in the assay with Human fetal astrocytes [1] (22.22 µM), 25.8%. Moreover, the synaptosome phagocytosis is 107% in the assay with Human fetal astrocytes [2] (1.39 µM); 85.9% in the assay on Human fetal astrocytes [2] (2.78 µM); 144% with Human fetal astrocytes [2] (5.56 µM); 114% in the assay with Human fetal astrocytes [2] (11.11 µM); 150% with Human fetal astrocytes [2] (22.22 µM).
Turning to `NCC[C@H](O)C(=O)N[C@@H]1C[C@H](N)[C@@H](O[C@H]2O[C@H](CN)[C@@H](O)[C@H](O)[C@H]2O)[C@H](O)[C@H]1O[C@H]1O[C@H](CO)[C@@H](O)[C@H](N)[C@H]1O`, the “loss of total cells” value with Human fetal astrocytes [1] (1.39 µM) is -16.6%; with Human fetal astrocytes [1] (2.78 µM), -19.2%; in the assay on Human fetal astrocytes [1] (5.56 µM), 20.1%; in the assay with Human fetal astrocytes [1] (11.11 µM), 8.6%; in the assay on Human fetal astrocytes [1] (22.22 µM), 15.3%. The synaptosome phagocytosis in the assay with Human fetal astrocytes [2] (1.39 µM) was 115%; with Human fetal astrocytes [2] (2.78 µM), 112%; with Human fetal astrocytes [2] (5.56 µM), 112%; in the assay on Human fetal astrocytes [2] (11.11 µM) it was 122%; with Human fetal astrocytes [2] (22.22 µM), 124%.
In the case of `CC(=O)O[C@H]1CC[C@]2(C)C3=CC(=O)[C@@]4(C)C(C[C@@H]5OC6(OCC(C)CC6Br)[C@@H](C)[C@@H]54)C3CC[C@H]2C1` (stereo partly drawn) [3beta-ACETOXY-23-BROMO-ISOALLOSPIROST-9 (11)-ENE-12-ONE], the “loss of total cells” value in the assay with Human fetal astrocytes [1] (1.39 µM) is -17%; in the assay with Human fetal astrocytes [1] (2.78 µM), -0.7%; with Human fetal astrocytes [1] (5.56 µM) it was 29%; with Human fetal astrocytes [1] (11.11 µM) it was 38.7%; in the assay on Human fetal astrocytes [1] (22.22 µM), -15.9%. The synaptosome phagocytosis in the assay with Human fetal astrocytes [2] (1.39 µM) is 86.6%; in the assay on Human fetal astrocytes [2] (2.78 µM), 115%; in the assay with Human fetal astrocytes [2] (5.56 µM) it was 131%; with Human fetal astrocytes [2] (11.11 µM) it was 111%; in the assay with Human fetal astrocytes [2] (22.22 µM) it was 108%.
For `CCN(CC)CCOC(=O)C(Cc1cccc2ccccc12)CC1CCCO1` (stereo not given), the “loss of total cells” value with Human fetal astrocytes [1] (1.39 µM) is -34.7%; in the assay on Human fetal astrocytes [1] (2.78 µM), -34.9%; with Human fetal astrocytes [1] (5.56 µM), 0.6%; in the assay on Human fetal astrocytes [1] (11.11 µM) it was 29.8%; with Human fetal astrocytes [1] (22.22 µM), 0.3%. Also, the synaptosome phagocytosis in the assay on Human fetal astrocytes [2] (1.39 µM) is 98.4%; in the assay on Human fetal astrocytes [2] (2.78 µM), 104%; in the assay on Human fetal astrocytes [2] (5.56 µM), 112%; in the assay on Human fetal astrocytes [2] (11.11 µM), 117%; with Human fetal astrocytes [2] (22.22 µM), 125%.
As to `CC(=O)c1ccc2c(c1)N(CCCN(C)C)c1ccccc1S2`, the “loss of total cells” value with Human fetal astrocytes [1] (1.39 µM) is -35.5%; in the assay with Human fetal astrocytes [1] (2.78 µM) it was -30.2%; in the assay with Human fetal astrocytes [1] (5.56 µM) it was -7.5%; in the assay with Human fetal astrocytes [1] (11.11 µM), -12.1%; in the assay on Human fetal astrocytes [1] (22.22 µM), -0.9%. Also, the synaptosome phagocytosis with Human fetal astrocytes [2] (1.39 µM) is 106%; in the assay with Human fetal astrocytes [2] (2.78 µM), 108%; with Human fetal astrocytes [2] (5.56 µM) it was 90%; with Human fetal astrocytes [2] (11.11 µM) it was 67%; in the assay on Human fetal astrocytes [2] (22.22 µM) it was 92.4%.
As for `CCN1CCN(C(=O)N[C@@H](C(=O)N[C@@H]2C(=O)N3C(C(=O)O)=C(CSc4nnnn4C)CS[C@H]23)c2ccc(O)cc2)C(=O)C1=O`, the “loss of total cells” value in the assay on Human fetal astrocytes [1] (1.39 µM) is 8.3%; in the assay on Human fetal astrocytes [1] (2.78 µM) it was -13.1%; with Human fetal astrocytes [1] (5.56 µM), 6.9%; with Human fetal astrocytes [1] (11.11 µM) it was -10.2%; in the assay on Human fetal astrocytes [1] (22.22 µM), 15.3%. The synaptosome phagocytosis is 118% in the assay with Human fetal astrocytes [2] (1.39 µM); 91.1% in the assay with Human fetal astrocytes [2] (2.78 µM); 106% in the assay on Human fetal astrocytes [2] (5.56 µM); 124% in the assay on Human fetal astrocytes [2] (11.11 µM); 107% in the assay on Human fetal astrocytes [2] (22.22 µM).
`CC1(C)O[C@H]2CC(=O)OC[C@]23[C@H]2CC[C@@]4(C)[C@H](c5ccoc5)OC(=O)[C@H]5O[C@]54[C@]2(C)C(=O)C[C@@H]13`: the “loss of total cells” value was -16.4% with Human fetal astrocytes [1] (1.39 µM); -1.8% in the assay on Human fetal astrocytes [1] (2.78 µM); -1.5% in the assay with Human fetal astrocytes [1] (5.56 µM); 12.2% in the assay with Human fetal astrocytes [1] (11.11 µM); 19.3% in the assay on Human fetal astrocytes [1] (22.22 µM). Further, the synaptosome phagocytosis in the assay on Human fetal astrocytes [2] (1.39 µM) was 74%; in the assay with Human fetal astrocytes [2] (2.78 µM) it was 119%; with Human fetal astrocytes [2] (5.56 µM), 104%; in the assay on Human fetal astrocytes [2] (11.11 µM), 97.3%; in the assay with Human fetal astrocytes [2] (22.22 µM), 148%.
`CCc1ccc(CCOc2ccc(CC3SC(=O)NC3=O)cc2)nc1` (stereo not given): the “loss of total cells” value in the assay with Human fetal astrocytes [1] (1.39 µM) is -25.8%; in the assay on Human fetal astrocytes [1] (2.78 µM), -30.2%; with Human fetal astrocytes [1] (5.56 µM), -0.6%; with Human fetal astrocytes [1] (11.11 µM), 45.6%; with Human fetal astrocytes [1] (22.22 µM), 8.4%. In addition, the synaptosome phagocytosis in the assay on Human fetal astrocytes [2] (1.39 µM) is 122%; with Human fetal astrocytes [2] (2.78 µM), 132%; in the assay on Human fetal astrocytes [2] (5.56 µM), 109%; in the assay on Human fetal astrocytes [2] (11.11 µM) it was 120%; with Human fetal astrocytes [2] (22.22 µM), 126%.
As for `NC(=O)N/N=C/c1ccc([N+](=O)[O-])o1`, the “loss of total cells” value was 6.8% with Human fetal astrocytes [1] (1.39 µM); -8.5% with Human fetal astrocytes [1] (2.78 µM); -13.2% in the assay with Human fetal astrocytes [1] (5.56 µM); 8.4% in the assay with Human fetal astrocytes [1] (11.11 µM); -33.1% in the assay with Human fetal astrocytes [1] (22.22 µM). Besides, the synaptosome phagocytosis was 97.8% with Human fetal astrocytes [2] (1.39 µM); 122% in the assay on Human fetal astrocytes [2] (2.78 µM); 67.2% in the assay on Human fetal astrocytes [2] (5.56 µM); 90.2% in the assay on Human fetal astrocytes [2] (11.11 µM); 68.3% in the assay with Human fetal astrocytes [2] (22.22 µM).
